Source: patent US20110152362A1, “METHODS OF TREATING EPILEPTOGENESIS AND EPILEPSY” (priority 2004, published 2011)
At least one read-out could not be matched to a standard name with certainty.

Experiment: Example 3 study 1: single oral dose pharmacokinetics in healthy men
Assay type: in vivo, human
Conditions: single oral dose 100-1500 mg
Method: Two single-center, placebo-controlled, double-blind, ascending-dose studies were conducted in healthy men ≧18 and ≦45 yrs. In study 1 (N=70), subjects were randomly assigned to a single dose of Test Compound (TC) or placebo. Escalated doses were received as 100, 250, 400, 750, 1000, 1250, and 1500 mg. PK parameters were estimated from plasma and urine samples collected up to 3 days post dose. Study 2 (N=53) evaluated the PK of repeated doses of Test Compound (TC) in 4 dose groups (100, 250, 500, or 750 mg). Within each group, 12 subjects were assigned to q12h treatment with drug or placebo for 1 wk and were crossed over after a 14-day washout period. PK parameters were estimated from plasma and urine samples on days 1 and 7.

With `NC(=O)OC[C@@H](O)c1ccccc1Cl` [TC] the “Mean Vd/F” value was 52.1 to 66.3 L/h.
